Literature values in patent publication US20220401418A1, “TREATMENT OF MALARIA USING HISTONE DEACETYLASE (HDAC) INHIBITORS” (FOUNDATION FOR NEGLECTED DISEASE RESEARCH, priority 2019, published 2022).
At least one compound was matched to its structure with a doubt left.

Tested on: Pf
Conditions: cited from earlier work

With `CCC(=O)CCCCC[C@@H]1NC(=O)[C@H]2CCCCN2C(=O)[C@H]([C@@H](C)CC)NC(=O)[C@H](Cc2cn(OC)c3ccccc23)NC1=O` [Apicidin] as the molecule, how does the IC50 (literature values, read-out: IC50 in Pf (in vitro anti-parasitic potency)) read?
The IC50 was 200 nM.

And the “selectivity for Pf versus mammalian cells (selectivity index)” value (whole cell assay, literature)?
Its value is “not selective”.
